Screening data, single-dose tests

From ChEMBL document CHEMBL3988442, “University of Dundee, Small-Polar-MMV Screening Library” (2021).

The filed quantity is “Percent Effect” (%).
The record does not define 0% and 100%; most values in the screen are far below 50% and negative numbers occur (in some assays of this library far below -100).
The compounds are a random part of those screened.

T. brucei: 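Whole-parasite assay of Trypanosoma brucei over 72 hours; the read-out is not stated. Tested at 30 µM. The record gives no direction; compounds that gave an IC50 in retests scored well above the rest, so higher reads as stronger inhibition. Values scatter widely below zero; nearly all retest evidence comes from the higher of the two concentrations used. Of about 64,000 compounds tested this way, about 940 (1.5%) reached 50% or more in at least one test.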
Toxoplasma: 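Assay of Toxoplasma gondii numbers, read through their beta-galactosidase reporter with a colour substrate. Concentration: 10 µM. Higher reads as fewer parasites (inferred from which compounds were picked for retests). Of about 67,000 compounds tested this way, about 260 (0.38%) reached 50% or more in at least one test.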

compound,T. brucei,Toxoplasma
FC(F)(F)c1ccnc(N2CCCN(Cc3ccccn3)CC2)n1,-23.54,16.3
Cn1c(=O)ccn(CC(=O)Nc2cccnc2)c1=O,-17.37,0.8021
COCC1COCCC12CCN(S(=O)(=O)c1ccccc1C)CC2 (centres unmarked),-17.38,4.721
COc1cccc(C2CCN2C(=O)c2cnccn2)c1 (centres unmarked),-25.36,-1.716
CCN(C(c1ccc(OC)cc1)c1cccnc1)S(C)(=O)=O (centres unmarked),-10.37,-2.183
Cc1nc(N2CCOCC2)nc2c1CCN(Cc1nccn1C)CC2.O=C(O)C(F)(F)F,-9.568,-1.576
O=C(c1cc(C2CC2)on1)N1CCC(Oc2ncccc2Br)CC1,0.3421,0.7722
COc1ccnc(NCc2ccccc2Cn2cccn2)n1,33.13,-3.885
O=C1CN(c2ccc(CNC(=O)Nc3nccs3)cc2)CCN1,-4.582,19.56
Cc1cc(Br)ccc1CNC(=O)C1(O)CCSCC1,-5.455,-0.1836
Cl.O=C(Nc1cccc(F)c1)C1=NOC2(CCNCC2)C1,-7.13,5.123
CC(=O)c1cnc(NCCc2csc(-c3cnccn3)n2)nc1C,5.654,-2.316
CCN1CC2(CC1=O)CN(C(C)=O)CCN(S(C)(=O)=O)C2 (centres unmarked),-39.51,1.011
N#CC1(NC(=O)c2nccc3ccccc23)CCC1,-69.49,4.176
CCC(CO)N(Cc1ccsc1)Cc1ccccc1C(=O)O (centres unmarked),-18.58,1.27
CCN(CCc1nc2cc(C)ccc2[nH]1)C(=O)[C@@H](N)COC,-62.9,-33.03
O=C(c1ccsc1)N1CCc2c(CNc3ncccn3)n[nH]c2C1,33.76,1.603
N#CC1CCCN(c2ncnc3c2CCN(Cc2ccccc2)CC3)C1 (centres unmarked),-15.11,-2.999
[H][C@]12CC[C@]([H])(CN(S(=O)(=O)c3ccc(OC)cc3)C1)N(CCOC)C2=O,-80.52,-0.3469
Cc1ncc(CN2CCOC(c3ccc(-c4ccccc4F)cn3)C2)s1 (centres unmarked),93.67,56.75
Cc1ccc(C(=O)NS(=O)(=O)Cc2ccc(F)cc2)cc1S(C)(=O)=O,11.76,-4.823
Cc1cccc(CNC2CCCc3c2cnn3C)c1.Cl (centres unmarked),5.756,-0.9765
CCN(CC)CCCN1CCN(c2nc(C)cnc2C)CC1,10.5,7.287
COC(=O)CCNC(=O)c1nc(NS(=O)(=O)c2ccccc2)sc1C,-19,1.325
CCOC1CC2(CCN(CCO)CC2)c2ccc(C)cc21 (centres unmarked),-13.92,-10.7
CC(=O)N1CCC(NC(=O)N2CCCC2c2ccsc2)CC1 (centres unmarked),-34.54,8.974
COCc1cc(N(C)Cc2cnccn2)nc(C(C)(C)C)n1,-14.18,0
CC(C)Cc1nc(CN2CCCC2Cn2cncn2)no1 (centres unmarked),7.249,-2.267
c1ccc(C2CCCN2C2CSCCSC2)nc1 (centres unmarked),6.12,3.526
CCCNC(=O)c1cc2c([nH]c1=O)CC(c1cccs1)CC2=O (centres unmarked),-0.9797,-0.3586
CC(C)CN1CC(c2nc(-c3cccc(F)c3)c[nH]2)CC1=O (centres unmarked),-15.5,3.609
CNS(=O)(=O)c1csc(C(=O)N(C)Cc2sccc2C)c1,32.79,-1.789
COCC1CC2(CCN(Cc3ccccn3)CC2)CN1c1ncccn1.O=C(O)C(F)(F)F.O=C(O)C(F)(F)F.O=C(O)C(F)(F)F (centres unmarked),6.289,2.31
Cc1cc(CN2CCC(c3nccn3C(C)C)CC2)ccc1F,-24.52,9.517
Cc1nc(CC(=O)NCCN2CCC(c3ccccc3C)C2)cs1 (centres unmarked),-59.14,-11.93
Cc1ccc(F)c(OC2CCCN(c3cnn(C)c3)C2=O)c1 (centres unmarked),-20.01,2.843
O=C(NCCN1CCCC(CO)C1)c1ccc2scnc2c1 (centres unmarked),6.292,-6.456
CS(=O)(=O)NCC1CCCCN1C(=O)c1csc(-c2ccsc2)n1 (centres unmarked),-12.78,-14.43
Cc1cc(S(=O)(=O)N2C[C@H](C3CC3)[C@@H](N)C2)c(C)s1,-48.29,12.73
CC1CN(C)c2ccccc2CN1C(=O)c1ccc[nH]1 (centres unmarked),-67.09,9.414
CN(CC(=O)N1CCN(CC(C)(C)O)CC1)c1ccc(Cl)cn1,15.78,-3.218
CC(=O)N1CC(C)CN(Cc2ccon2)c2ccccc21 (centres unmarked),-22.93,11.51
CNC(=O)NCC(CO)Cc1cccc(OC(F)(F)F)c1 (centres unmarked),-27.06,1.282
CCn1cncc1CNc1ccc(-c2nc(CC(C)C)no2)cn1,-50.03,-1.805
COc1c(CNC2(c3noc(C)n3)CCC2)c(C)nn1C.Cl,-7.927,55.08
Cc1csc(C(C)(C)NCCNS(C)(=O)=O)n1,-6.489,4.432

Some entries from above, unchanged:

compound	T. brucei	Toxoplasma
CCN(CCc1nc2cc(C)ccc2[nH]1)C(=O)[C@@H](N)COC	-62.9	-33.03
CCN1CC2(CC1=O)CN(C(C)=O)CCN(S(C)(=O)=O)C2 (centres unmarked)	-39.51	1.011
Cc1ncc(CN2CCOC(c3ccc(-c4ccccc4F)cn3)C2)s1 (centres unmarked)	93.67	56.75
COC(=O)CCNC(=O)c1nc(NS(=O)(=O)c2ccccc2)sc1C	-19	1.325